Measurements reported in PubChem BioAssay AID1224830 (NIAID, 2016).
The whole screen tested about 18,000 reagents; this is a random part of them. About 2,900 of all reagents (16%) were called active. 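Calls are made per well; low scores hint the gene aids the LPS response, high scores that it dampens it.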 Repeated entries: four replicate wells of each siRNA pool.

Purpose: 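Genes whose knock-down alters the TNF-alpha reporter response to LPS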 (primary screen)
Cells: human THP-1 monocytic leukaemia cells, TNF dual-luciferase reporter clone, PMA-differentiated to macrophage-like cells
Knock-down reagent: siRNA pool against human genes, 50 nM
Time to read-out: LPS for 4 h, given about 3 days after siRNA transfection
Treatment: bacterial LPS (TLR4 ligand), 10 ng/ml
Detection: 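Ratio of firefly to renilla light, scaled to the plate median and expressed as a robust z-score per replicate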
Scale: TNF reporter robust z-score: higher = stronger TNF reporter response to LPS
Call rule: 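Each well counts as active if its z-score is over 2.8 or under -1.5; controls are left without a call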

gene symbol	TNF reporter robust z-score	activity call
NLRC5 (NLR family CARD domain containing 5)	0.71	inactive
NLRC5 (NLR family CARD domain containing 5)	0.11	inactive
NLRC5 (NLR family CARD domain containing 5)	0.94	inactive
NLRC5 (NLR family CARD domain containing 5)	-0.47	inactive
NAP1L5 (nucleosome assembly protein 1 like 5)	0.26	inactive
NAP1L5 (nucleosome assembly protein 1 like 5)	0.31	inactive
NAP1L5 (nucleosome assembly protein 1 like 5)	0.39	inactive
NAP1L5 (nucleosome assembly protein 1 like 5)	0.33	inactive
TTC21A (tetratricopeptide repeat domain 21A)	3.91	active
TTC21A (tetratricopeptide repeat domain 21A)	-0.43	inactive
TTC21A (tetratricopeptide repeat domain 21A)	-0.83	inactive
TTC21A (tetratricopeptide repeat domain 21A)	-0.32	inactive
SLC35G1	-0.4	inactive
SLC35G1	-0.03	inactive
SLC35G1	1.94	inactive
SLC35G1	0.55	inactive
DIPK1B (divergent protein kinase domain 1B)	-1.92	active
DIPK1B (divergent protein kinase domain 1B)	-1.38	inactive
CCNYL1 (cyclin Y like 1)	-1.02	inactive
CCNYL1 (cyclin Y like 1)	-0.37	inactive
CCNYL1 (cyclin Y like 1)	-0.84	inactive
CCNYL1 (cyclin Y like 1)	-1.17	inactive
CTBP2 (C-terminal binding protein 2)	0.13	inactive
CTBP2 (C-terminal binding protein 2)	0.38	inactive
CTBP2 (C-terminal binding protein 2)	0.99	inactive
CTBP2 (C-terminal binding protein 2)	0.84	inactive
BRAT1 (BRCA1 associated ATM activator 1)	-0.24	inactive
BRAT1 (BRCA1 associated ATM activator 1)	1.9	inactive
BRAT1 (BRCA1 associated ATM activator 1)	1.61	inactive
BRAT1 (BRCA1 associated ATM activator 1)	0.37	inactive
AP4B1 (adaptor related protein complex 4 subunit beta 1)	-1.27	inactive
AP4B1 (adaptor related protein complex 4 subunit beta 1)	-1.11	inactive
AP4B1 (adaptor related protein complex 4 subunit beta 1)	-1.01	inactive
AP4B1 (adaptor related protein complex 4 subunit beta 1)	-0.91	inactive
OBI1 (ORC ubiquitin ligase 1)	-1.05	inactive
OBI1 (ORC ubiquitin ligase 1)	1.33	inactive
OBI1 (ORC ubiquitin ligase 1)	0.47	inactive
OBI1 (ORC ubiquitin ligase 1)	2.11	inactive
TADA2A (transcriptional adaptor 2A)	0.75	inactive
TADA2A (transcriptional adaptor 2A)	0.53	inactive
TADA2A (transcriptional adaptor 2A)	0.25	inactive
TADA2A (transcriptional adaptor 2A)	1.34	inactive
GPR52 (G protein-coupled receptor 52)	-0.02	inactive
GPR52 (G protein-coupled receptor 52)	0.4	inactive
GPR52 (G protein-coupled receptor 52)	0.05	inactive
GPR52 (G protein-coupled receptor 52)	-0.13	inactive
CSNK1D (casein kinase 1 delta)	0.66	inactive
CSNK1D (casein kinase 1 delta)	0.31	inactive
CSNK1D (casein kinase 1 delta)	-0.28	inactive
CSNK1D (casein kinase 1 delta)	2.56	inactive
PRSS36 (serine protease 36)	-0.86	inactive
PRSS36 (serine protease 36)	-0.44	inactive
PRSS36 (serine protease 36)	-0.61	inactive
PRSS36 (serine protease 36)	0.79	inactive
PNPT1 (polyribonucleotide nucleotidyltransferase 1)	-0.35	inactive
PNPT1 (polyribonucleotide nucleotidyltransferase 1)	-0.37	inactive
PNPT1 (polyribonucleotide nucleotidyltransferase 1)	-1.19	inactive
PNPT1 (polyribonucleotide nucleotidyltransferase 1)	-0.74	inactive
MTTP (microsomal triglyceride transfer protein)	-0.26	inactive
MTTP (microsomal triglyceride transfer protein)	0.99	inactive
MTTP (microsomal triglyceride transfer protein)	0.77	inactive
MTTP (microsomal triglyceride transfer protein)	0.4	inactive
SLC43A1	-1.33	inactive
SLC43A1	-1.31	inactive
SLC43A1	-1.06	inactive
UQCR11 (ubiquinol-cytochrome c reductase, complex III subunit XI)	0.26	inactive
UQCR11 (ubiquinol-cytochrome c reductase, complex III subunit XI)	-0.15	inactive
UQCR11 (ubiquinol-cytochrome c reductase, complex III subunit XI)	0.66	inactive
UQCR11 (ubiquinol-cytochrome c reductase, complex III subunit XI)	0.7	inactive
ZNF461 (zinc finger protein 461)	-0.14	inactive
ZNF461 (zinc finger protein 461)	-0.32	inactive
ZNF461 (zinc finger protein 461)	1.35	inactive
ZNF461 (zinc finger protein 461)	1.73	inactive
SLC11A1	-1.31	inactive
SLC11A1	-1.33	inactive
SLC11A1	-2.15	active
SLC11A1	-1.1	inactive
ZMAT1 (zinc finger matrin-type 1)	-0.15	inactive
ZMAT1 (zinc finger matrin-type 1)	-0.57	inactive
ZMAT1 (zinc finger matrin-type 1)	-0.45	inactive
ZMAT1 (zinc finger matrin-type 1)	-0.17	inactive
TMEM60 (transmembrane protein 60)	9.52	active
TMEM60 (transmembrane protein 60)	0.54	inactive
TMEM60 (transmembrane protein 60)	3.31	active
TMEM60 (transmembrane protein 60)	1.4	inactive
OLFML2B (olfactomedin like 2B)	1.3	inactive
OLFML2B (olfactomedin like 2B)	0.39	inactive
OLFML2B (olfactomedin like 2B)	0.72	inactive
OLFML2B (olfactomedin like 2B)	-1.01	inactive
PLA2G1B (phospholipase A2 group IB)	-0.25	inactive
PLA2G1B (phospholipase A2 group IB)	-0.13	inactive
PLA2G1B (phospholipase A2 group IB)	-0.38	inactive
PLA2G1B (phospholipase A2 group IB)	-0.53	inactive
ITGA8 (integrin subunit alpha 8)	-0.53	inactive
ITGA8 (integrin subunit alpha 8)	0.05	inactive
ITGA8 (integrin subunit alpha 8)	0.55	inactive
ITGA8 (integrin subunit alpha 8)	-1.21	inactive
SH3TC2 (SH3 domain and tetratricopeptide repeats 2)	2.05	inactive
SH3TC2 (SH3 domain and tetratricopeptide repeats 2)	2.33	inactive
SH3TC2 (SH3 domain and tetratricopeptide repeats 2)	3.04	active
SH3TC2 (SH3 domain and tetratricopeptide repeats 2)	2.74	inactive
PHYH (phytanoyl-CoA 2-hydroxylase)	1.55	inactive
PHYH (phytanoyl-CoA 2-hydroxylase)	2.23	inactive
PHYH (phytanoyl-CoA 2-hydroxylase)	2.1	inactive
PHYH (phytanoyl-CoA 2-hydroxylase)	3.61	active
SLC48A1		inactive
SLC48A1	-0.08	inactive
SLC48A1	0.2	inactive
SLC48A1	-0.03	inactive
SLC48A1	0.83	inactive

No new results follow: entries from further up.
gene symbol	TNF reporter robust z-score	activity call
ZNF461 (zinc finger protein 461)	1.35	inactive
ZNF461 (zinc finger protein 461)	1.73	inactive
SLC11A1	-1.31	inactive
SLC11A1	-1.33	inactive
SLC11A1	-2.15	active
SLC11A1	-1.1	inactive
ZMAT1 (zinc finger matrin-type 1)	-0.15	inactive
ZMAT1 (zinc finger matrin-type 1)	-0.57	inactive
ZMAT1 (zinc finger matrin-type 1)	-0.45	inactive
ZMAT1 (zinc finger matrin-type 1)	-0.17	inactive
TMEM60 (transmembrane protein 60)	9.52	active
TMEM60 (transmembrane protein 60)	0.54	inactive
